Results are given in words; binding and its absence hold for the method and conditions named. Binding seen in cells or lysates may run through a third protein. These calls come from enrichment with a bait or labelling near it, and not all partners need be listed. For part of these data: A no says only that the protein was not detected with the bait. For part of these data: Where a sequence is shown, tags or fusion partners need not be part of it.

Amino acid sequences for entries named in this document (tags omitted).
UniProt P39812: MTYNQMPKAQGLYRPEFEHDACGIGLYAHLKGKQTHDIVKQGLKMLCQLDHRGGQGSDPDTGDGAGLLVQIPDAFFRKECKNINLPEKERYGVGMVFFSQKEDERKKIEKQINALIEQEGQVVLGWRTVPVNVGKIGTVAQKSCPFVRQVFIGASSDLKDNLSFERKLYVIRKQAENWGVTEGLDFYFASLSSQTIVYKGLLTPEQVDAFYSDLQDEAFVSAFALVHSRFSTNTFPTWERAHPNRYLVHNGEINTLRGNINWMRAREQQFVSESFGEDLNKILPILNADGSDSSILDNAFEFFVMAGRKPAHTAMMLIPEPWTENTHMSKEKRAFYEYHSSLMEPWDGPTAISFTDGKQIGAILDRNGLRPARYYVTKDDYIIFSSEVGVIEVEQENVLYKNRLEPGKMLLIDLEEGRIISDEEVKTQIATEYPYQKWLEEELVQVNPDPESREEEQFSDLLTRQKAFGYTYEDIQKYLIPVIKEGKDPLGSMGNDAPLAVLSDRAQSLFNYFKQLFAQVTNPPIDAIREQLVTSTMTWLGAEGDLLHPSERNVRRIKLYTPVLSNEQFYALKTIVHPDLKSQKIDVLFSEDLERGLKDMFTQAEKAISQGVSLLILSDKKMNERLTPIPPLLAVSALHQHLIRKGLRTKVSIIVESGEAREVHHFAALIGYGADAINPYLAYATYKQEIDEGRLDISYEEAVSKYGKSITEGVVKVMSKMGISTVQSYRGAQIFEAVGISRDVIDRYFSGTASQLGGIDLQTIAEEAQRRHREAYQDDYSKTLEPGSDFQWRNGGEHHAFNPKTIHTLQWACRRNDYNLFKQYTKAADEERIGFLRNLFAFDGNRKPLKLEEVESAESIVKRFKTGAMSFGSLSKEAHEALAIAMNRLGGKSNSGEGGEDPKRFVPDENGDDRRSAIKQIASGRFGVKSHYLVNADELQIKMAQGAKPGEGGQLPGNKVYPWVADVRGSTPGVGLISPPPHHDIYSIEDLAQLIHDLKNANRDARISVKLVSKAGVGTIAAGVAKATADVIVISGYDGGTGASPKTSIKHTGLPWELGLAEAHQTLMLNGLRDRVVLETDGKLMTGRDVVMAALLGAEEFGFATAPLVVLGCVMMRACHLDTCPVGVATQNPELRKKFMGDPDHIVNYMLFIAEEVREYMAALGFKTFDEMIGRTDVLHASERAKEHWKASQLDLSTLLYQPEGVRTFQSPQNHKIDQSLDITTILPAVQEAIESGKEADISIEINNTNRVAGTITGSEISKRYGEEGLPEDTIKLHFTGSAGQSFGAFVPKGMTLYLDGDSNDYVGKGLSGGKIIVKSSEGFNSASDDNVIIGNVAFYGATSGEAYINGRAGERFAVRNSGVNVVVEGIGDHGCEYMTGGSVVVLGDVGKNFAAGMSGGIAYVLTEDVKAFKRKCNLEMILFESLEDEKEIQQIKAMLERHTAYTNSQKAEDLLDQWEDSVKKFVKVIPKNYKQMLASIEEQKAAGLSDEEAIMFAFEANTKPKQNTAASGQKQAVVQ

The source of these data is publication PMC5569456.

Common to all, as to assay: affinity purification with mass spectrometry; SPA-tag tandem affinity purification from B. subtilis cells grown in LB to exponential phase; cells resuspended in 10 mM Tris-Cl pH 8.0, 150 mM NaCl, lysozyme, Benzonase; eluted partners quantified by LC-MS/MS (PAI), 3 independent purifications; controls: no-SPA strain and PerR-SPA
Test [1] concerns the target T1, C-terminal SPA-tagged GlnR protein (GlnR^SPA) (Bacillus subtilis) (UniProt P37582).
T1 sequence: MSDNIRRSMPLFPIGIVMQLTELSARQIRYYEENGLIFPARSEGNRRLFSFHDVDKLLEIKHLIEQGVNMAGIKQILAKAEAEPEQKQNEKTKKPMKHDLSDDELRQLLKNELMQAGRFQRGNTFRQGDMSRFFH

For test [2], the target named is T2, PerR^SPA protein (Bacillus subtilis) (UniProt P71086).
T2 sequence: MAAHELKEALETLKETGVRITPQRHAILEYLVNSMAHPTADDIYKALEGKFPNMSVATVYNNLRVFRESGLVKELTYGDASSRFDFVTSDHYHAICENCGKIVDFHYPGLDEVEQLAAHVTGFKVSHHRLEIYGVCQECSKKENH

Test [3] deals with T3, C-terminal SPA-tagged GlnR protein (GlnR^SPA) (Bacillus subtilis), P37582.
T3 chain: T1 sequence
The conditions noted are these: remark: other sources report otherwise.

For the molecule “GltA (glutamate synthase) (from UniProt P39812 1-1520)”, the binding entry in test [1] was “binds”; in test [2] it was “no binding”.

B1: glutamine synthetase (GS), P12425 1-444 (enzyme)
chain: MAKYTREDIEKLVKEENVKYIRLQFTDILGTIKNVEIPVSQLGKALDNKVMFDGSSIEGFVRIEESDMYLYPDLNTFVIFPWTAEKGKVARFICDIYNPDGTPFEGDPRNNLKRILKEMEDLGFSDFNLGPEPEFFLFKLDEKGEPTLELNDKGGYFDLAPTDLGENCRRDIVLELEEMGFEIEASHHEVAPGQHEIDFKYAGAVRSCDDIQTFKLVVKTIARKHGLHATFMPKPLFGVNGSGMHCNLSLFKNGVNAFFDENADLQLSETAKHFIAGIVKHATSFTAVTNPTVNSYKRLVPGYEAPCYVAWSAQNRSPLIRIPASRGISTRVEVRSVDPAANPYLALSVLLAAGLDGIKNKLEAPAPIDRNIYVMSKEERMENGIVDLPATLAEALEEFKSNEVMVKALGEHLFEHFIEAKEIEWDMFRTQVHPWEREQYMSQY
Turning to B1, in test [3], the binding entry is recorded as “no binding”.

B2: TnrA (protein, UniProt Q45666 1-110)
chain: MTTEDHSYKDKKVISIGIVSELTGLSVRQIRYYEERKLIYPQRSSRGTRKYSFADVERLMDIANKREDGVQTAEILKDMRKKEQMLKNDPQVRKKMLEGQLNAHFRYKNR
With B2, the binding entry in test [1] is “binds”; in test [2], “no binding”.

B3: GlnR (protein, UniProt P37582 1-135)
chain: T1 sequence
On to B3, for which the binding result in test [2] is on record as “no binding”.
